From doi:10.1101/2022.07.01.497917
Results are given in words; binding and its absence hold for the method and conditions named. Binding seen in cells or lysates may run through a third protein. Binding can be weak; no strength is given.

By UniProt entry, the sequences of proteins in these tests, tags left out. Where a name states a change or a piece, a line headed by the entry shows the natural chain unless it says otherwise. Residues count along the entry.
UniProt Q8WWQ8: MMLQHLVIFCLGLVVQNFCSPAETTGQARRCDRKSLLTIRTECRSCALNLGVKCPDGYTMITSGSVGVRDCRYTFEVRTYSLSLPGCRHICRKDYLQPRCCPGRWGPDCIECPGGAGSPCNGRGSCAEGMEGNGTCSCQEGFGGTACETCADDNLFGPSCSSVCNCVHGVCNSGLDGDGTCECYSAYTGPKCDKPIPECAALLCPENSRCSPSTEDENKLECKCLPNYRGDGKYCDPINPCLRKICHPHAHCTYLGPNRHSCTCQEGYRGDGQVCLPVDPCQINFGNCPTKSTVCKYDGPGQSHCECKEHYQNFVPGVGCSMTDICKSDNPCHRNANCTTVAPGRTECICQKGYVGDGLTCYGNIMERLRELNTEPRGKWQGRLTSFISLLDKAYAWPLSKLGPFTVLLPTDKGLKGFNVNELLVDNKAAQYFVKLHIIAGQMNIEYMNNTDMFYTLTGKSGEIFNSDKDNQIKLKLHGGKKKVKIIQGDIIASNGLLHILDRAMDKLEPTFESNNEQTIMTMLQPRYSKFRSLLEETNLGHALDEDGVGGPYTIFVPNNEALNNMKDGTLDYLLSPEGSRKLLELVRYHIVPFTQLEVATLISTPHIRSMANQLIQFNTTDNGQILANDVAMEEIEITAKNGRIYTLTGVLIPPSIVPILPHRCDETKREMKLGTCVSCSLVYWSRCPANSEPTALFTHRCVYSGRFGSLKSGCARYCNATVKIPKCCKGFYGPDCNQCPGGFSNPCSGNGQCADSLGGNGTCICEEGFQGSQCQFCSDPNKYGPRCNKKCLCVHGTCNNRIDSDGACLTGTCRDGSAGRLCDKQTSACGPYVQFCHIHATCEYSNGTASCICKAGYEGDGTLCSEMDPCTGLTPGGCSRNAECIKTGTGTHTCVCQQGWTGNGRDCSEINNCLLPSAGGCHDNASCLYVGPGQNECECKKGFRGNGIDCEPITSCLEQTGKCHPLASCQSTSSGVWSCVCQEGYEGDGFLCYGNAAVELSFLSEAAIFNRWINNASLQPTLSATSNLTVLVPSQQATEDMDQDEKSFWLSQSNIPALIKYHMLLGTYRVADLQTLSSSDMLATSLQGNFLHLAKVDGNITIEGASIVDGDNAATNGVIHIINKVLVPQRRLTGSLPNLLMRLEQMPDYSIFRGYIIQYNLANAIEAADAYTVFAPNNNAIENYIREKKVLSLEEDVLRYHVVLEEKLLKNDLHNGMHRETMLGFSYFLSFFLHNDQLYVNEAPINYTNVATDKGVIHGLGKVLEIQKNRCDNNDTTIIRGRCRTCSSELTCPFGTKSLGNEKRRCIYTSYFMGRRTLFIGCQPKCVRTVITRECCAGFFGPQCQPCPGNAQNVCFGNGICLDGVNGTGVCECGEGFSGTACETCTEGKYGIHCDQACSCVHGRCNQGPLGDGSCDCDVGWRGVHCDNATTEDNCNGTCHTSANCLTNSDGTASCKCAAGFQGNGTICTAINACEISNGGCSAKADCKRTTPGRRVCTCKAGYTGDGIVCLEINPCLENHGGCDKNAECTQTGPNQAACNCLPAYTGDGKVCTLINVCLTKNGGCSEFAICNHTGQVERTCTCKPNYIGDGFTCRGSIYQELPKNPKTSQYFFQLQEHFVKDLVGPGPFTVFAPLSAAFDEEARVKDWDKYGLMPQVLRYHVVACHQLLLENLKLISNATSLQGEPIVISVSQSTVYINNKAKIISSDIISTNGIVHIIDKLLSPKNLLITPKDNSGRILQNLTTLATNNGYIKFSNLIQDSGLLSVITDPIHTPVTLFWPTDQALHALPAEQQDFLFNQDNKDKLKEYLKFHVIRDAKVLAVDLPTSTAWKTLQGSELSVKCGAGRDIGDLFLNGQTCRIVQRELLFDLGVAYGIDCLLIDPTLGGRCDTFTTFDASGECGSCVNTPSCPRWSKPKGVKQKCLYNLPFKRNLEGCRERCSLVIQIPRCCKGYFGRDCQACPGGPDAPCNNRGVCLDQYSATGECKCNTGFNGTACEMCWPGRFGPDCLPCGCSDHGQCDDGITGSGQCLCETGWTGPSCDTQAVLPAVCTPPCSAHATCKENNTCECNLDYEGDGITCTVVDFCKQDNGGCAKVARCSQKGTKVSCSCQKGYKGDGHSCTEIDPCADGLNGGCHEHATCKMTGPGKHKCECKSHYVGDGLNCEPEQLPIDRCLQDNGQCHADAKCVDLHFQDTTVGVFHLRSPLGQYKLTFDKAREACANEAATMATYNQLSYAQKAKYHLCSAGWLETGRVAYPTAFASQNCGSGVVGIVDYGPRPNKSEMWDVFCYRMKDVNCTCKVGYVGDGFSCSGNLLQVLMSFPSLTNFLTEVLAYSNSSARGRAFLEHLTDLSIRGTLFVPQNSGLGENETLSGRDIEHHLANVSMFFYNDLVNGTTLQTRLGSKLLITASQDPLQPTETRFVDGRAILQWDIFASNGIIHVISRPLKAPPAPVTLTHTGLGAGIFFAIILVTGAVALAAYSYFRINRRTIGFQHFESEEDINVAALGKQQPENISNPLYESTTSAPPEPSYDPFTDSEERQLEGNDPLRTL
UniProt Q9NY15: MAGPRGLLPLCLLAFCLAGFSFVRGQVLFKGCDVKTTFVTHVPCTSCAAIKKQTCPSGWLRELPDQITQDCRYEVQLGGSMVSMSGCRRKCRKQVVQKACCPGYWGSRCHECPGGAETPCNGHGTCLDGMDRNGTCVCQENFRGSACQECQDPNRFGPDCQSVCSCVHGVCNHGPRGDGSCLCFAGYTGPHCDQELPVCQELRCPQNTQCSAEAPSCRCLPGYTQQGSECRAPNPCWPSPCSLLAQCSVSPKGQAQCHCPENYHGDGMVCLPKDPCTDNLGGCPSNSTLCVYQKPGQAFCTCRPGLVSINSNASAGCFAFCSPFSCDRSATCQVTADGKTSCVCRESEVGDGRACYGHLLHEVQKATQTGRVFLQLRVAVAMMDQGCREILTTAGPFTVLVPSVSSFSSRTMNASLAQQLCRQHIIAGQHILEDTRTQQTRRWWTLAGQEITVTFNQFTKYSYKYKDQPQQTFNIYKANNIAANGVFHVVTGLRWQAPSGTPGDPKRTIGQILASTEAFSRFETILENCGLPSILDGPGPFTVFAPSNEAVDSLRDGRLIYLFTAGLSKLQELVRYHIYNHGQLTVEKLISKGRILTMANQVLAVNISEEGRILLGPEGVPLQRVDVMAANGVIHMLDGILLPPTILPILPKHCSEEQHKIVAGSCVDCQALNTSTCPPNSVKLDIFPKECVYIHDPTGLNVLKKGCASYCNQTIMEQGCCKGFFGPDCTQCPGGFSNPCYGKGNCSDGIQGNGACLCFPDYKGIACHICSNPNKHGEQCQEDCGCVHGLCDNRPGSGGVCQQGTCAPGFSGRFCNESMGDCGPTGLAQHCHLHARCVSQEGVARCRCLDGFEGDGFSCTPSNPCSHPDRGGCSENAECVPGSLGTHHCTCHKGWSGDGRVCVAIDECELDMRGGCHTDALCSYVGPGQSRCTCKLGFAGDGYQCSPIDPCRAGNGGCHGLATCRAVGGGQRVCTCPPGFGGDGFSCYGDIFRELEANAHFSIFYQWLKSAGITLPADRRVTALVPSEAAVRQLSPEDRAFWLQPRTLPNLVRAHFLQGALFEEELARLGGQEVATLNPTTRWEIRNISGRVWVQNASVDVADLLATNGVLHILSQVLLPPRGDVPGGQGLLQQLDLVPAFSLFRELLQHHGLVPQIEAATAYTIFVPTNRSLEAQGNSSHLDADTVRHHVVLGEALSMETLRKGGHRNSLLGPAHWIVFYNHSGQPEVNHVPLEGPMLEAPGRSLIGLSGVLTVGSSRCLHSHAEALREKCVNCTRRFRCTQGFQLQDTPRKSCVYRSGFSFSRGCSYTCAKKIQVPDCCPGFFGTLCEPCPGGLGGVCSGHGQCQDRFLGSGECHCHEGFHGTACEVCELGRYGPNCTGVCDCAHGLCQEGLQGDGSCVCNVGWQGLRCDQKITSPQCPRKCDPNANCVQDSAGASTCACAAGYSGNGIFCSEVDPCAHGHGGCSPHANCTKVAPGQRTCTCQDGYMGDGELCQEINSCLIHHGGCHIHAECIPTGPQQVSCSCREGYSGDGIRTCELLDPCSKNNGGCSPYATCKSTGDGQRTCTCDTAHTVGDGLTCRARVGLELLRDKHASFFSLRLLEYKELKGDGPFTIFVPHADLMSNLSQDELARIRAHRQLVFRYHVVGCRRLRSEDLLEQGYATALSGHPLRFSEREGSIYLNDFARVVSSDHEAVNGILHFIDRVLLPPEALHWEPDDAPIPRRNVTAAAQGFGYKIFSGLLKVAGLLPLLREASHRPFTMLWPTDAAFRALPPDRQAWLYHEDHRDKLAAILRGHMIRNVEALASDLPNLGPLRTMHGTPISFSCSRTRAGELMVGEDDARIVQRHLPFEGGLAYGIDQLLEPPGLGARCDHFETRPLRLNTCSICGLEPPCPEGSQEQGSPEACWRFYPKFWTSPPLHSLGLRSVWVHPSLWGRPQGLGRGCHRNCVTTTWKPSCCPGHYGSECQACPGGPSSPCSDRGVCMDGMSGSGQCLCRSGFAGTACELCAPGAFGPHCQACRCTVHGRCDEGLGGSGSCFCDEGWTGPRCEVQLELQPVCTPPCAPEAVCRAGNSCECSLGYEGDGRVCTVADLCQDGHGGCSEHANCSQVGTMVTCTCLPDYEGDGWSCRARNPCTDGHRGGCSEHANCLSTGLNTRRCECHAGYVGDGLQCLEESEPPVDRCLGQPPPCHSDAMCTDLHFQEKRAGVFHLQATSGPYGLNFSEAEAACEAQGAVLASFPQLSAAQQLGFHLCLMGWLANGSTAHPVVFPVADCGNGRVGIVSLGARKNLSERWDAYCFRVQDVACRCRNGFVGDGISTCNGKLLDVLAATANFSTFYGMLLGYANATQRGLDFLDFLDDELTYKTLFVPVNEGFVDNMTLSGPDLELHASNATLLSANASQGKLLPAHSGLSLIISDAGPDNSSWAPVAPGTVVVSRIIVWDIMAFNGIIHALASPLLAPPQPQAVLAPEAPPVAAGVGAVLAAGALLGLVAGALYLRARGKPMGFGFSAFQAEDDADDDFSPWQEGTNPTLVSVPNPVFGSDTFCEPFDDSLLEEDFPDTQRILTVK
UniProt Q15063, residues 22-836: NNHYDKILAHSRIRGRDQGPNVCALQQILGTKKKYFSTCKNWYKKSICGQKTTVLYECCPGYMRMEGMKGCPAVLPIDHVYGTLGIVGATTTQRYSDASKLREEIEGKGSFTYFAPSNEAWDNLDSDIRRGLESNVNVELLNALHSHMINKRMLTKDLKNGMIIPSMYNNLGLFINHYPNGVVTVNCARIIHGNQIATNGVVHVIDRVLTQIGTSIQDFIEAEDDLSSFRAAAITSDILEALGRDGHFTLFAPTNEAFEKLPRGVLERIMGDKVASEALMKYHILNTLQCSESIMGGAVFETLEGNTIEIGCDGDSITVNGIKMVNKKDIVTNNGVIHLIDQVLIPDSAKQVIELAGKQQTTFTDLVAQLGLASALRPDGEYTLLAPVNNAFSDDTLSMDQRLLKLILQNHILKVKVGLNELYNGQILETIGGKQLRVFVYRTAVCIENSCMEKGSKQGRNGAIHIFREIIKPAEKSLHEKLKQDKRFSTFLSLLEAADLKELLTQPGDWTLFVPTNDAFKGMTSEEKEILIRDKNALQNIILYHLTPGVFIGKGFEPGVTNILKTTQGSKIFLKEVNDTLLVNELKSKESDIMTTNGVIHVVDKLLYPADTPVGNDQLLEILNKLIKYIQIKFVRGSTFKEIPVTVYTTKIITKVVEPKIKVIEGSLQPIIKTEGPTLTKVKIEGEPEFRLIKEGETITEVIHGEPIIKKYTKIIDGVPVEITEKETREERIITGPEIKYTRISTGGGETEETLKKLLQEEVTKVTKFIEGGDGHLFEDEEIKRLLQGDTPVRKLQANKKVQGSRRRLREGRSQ

B1: recombinant human Transforming growth factor, beta-induced (TGFBi) (ligand, UniProt Q15582 24-683)
chain: GPAKSPYQLVLQHSRLRGRQHGPNVCAVQKVIGTNRKYFTNCKQWYQRKICGKSTVISYECCPGYEKVPGEKGCPAALPLSNLYETLGVVGSTTTQLYTDRTEKLRPEMEGPGSFTIFAPSNEAWASLPAEVLDSLVSNVNIELLNALRYHMVGRRVLTDELKHGMTLTSMYQNSNIQIHHYPNGIVTVNCARLLKADHHATNGVVHLIDKVISTITNNIQQIIEIEDTFETLRAAVAASGLNTMLEGNGQYTLLAPTNEAFEKIPSETLNRILGDPEALRDLLNNHILKSAMCAEAIVAGLSVETLEGTTLEVGCSGDMLTINGKAIISNKDILATNGVIHYIDELLIPDSAKTLFELAAESDVSTAIDLFRQAGLGNHLSGSERLTLLAPLNSVFKDGTPPIDAHTRNLLRNHIIKDQLASKYLYHGQTLETLGGKKLRVFVYRNSLCIENSCIAAHDKRGRYGTLFTMDRVLTPPMGTVMDVLKGDNRFSMLVAAIQSAGLTETLNREGVYTVFAPTNEAFRALPPRERSRLLGDAKELANILKYHIGDEILVSGGIGALVRLKSLQGDKLEVSLKNNVVSVNKEPVAEPDIMATNGVVHVITNVLQPPANRPQERGDELADSALEIFKQASAFSRASQRSVRLAPVYQKLLERMKH

How the values were obtained:
[1] = target: GST-tagged fragment of human Stab2, hStab2 F1-2 (human) (UniProt Q8WWQ8); test: pull-down
[2] = target: GST-tagged fragment of human Stab1, hStab1 F1-2 (human) (UniProt Q9NY15); test: pull-down

| Molecule | binding [1] | binding [2] |
| --- | --- | --- |
| recombinant human Periostin (POSTN) (from UniProt Q15063 22-836) (ligand) | binds | binds |
| B1 | binds | binds |
